Assay results published in article doi:10.1101/2021.12.08.471779.
Positions count from the first letter of the chain named. These are yes or no findings as the source states them, for the method shown. Binding seen in cells or lysates may run through a third protein.

By UniProt entry, the sequences of proteins in these tests, tags left out. Where a name states a change or a piece, a line headed by the entry shows the natural chain unless it says otherwise.
UniProt P02929, whole entry, looked up, stated change not applied: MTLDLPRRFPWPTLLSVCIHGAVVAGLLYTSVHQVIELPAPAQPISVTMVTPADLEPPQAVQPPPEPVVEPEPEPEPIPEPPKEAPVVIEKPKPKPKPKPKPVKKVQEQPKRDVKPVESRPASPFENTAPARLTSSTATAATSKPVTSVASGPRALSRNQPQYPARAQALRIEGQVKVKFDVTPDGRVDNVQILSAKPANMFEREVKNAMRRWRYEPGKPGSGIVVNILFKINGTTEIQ

Key:
Assay in all cases: cross-linking
[1] = target: T1, FepA E567C (Escherichia coli K-12) (UniProt P05825)
T1 sequence: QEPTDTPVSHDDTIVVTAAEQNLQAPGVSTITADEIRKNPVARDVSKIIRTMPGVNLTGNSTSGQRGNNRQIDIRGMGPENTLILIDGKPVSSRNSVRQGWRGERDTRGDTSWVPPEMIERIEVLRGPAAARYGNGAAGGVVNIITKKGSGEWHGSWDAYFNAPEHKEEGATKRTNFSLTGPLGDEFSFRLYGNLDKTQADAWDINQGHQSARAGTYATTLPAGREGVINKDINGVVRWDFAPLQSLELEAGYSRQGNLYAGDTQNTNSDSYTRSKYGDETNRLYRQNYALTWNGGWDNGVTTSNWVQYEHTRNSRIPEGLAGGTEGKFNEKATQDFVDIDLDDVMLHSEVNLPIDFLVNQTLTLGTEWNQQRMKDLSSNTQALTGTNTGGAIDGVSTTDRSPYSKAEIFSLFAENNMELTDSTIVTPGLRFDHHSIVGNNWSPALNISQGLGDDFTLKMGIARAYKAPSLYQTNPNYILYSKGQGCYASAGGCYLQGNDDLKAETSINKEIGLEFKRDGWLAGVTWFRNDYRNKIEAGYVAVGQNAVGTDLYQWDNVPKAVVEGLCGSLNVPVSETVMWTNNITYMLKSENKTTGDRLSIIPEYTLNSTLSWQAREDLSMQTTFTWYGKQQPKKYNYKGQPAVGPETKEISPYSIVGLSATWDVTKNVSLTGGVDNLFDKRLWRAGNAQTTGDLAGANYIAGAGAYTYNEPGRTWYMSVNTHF

[2] = target: T2, FepA V91C (Escherichia coli K-12) (UniProt P05825)
T2 sequence: T1 sequence with V91C, C567E

[3] = target: T3, FepA A131C (Escherichia coli K-12) (UniProt P05825)
T3 sequence: T1 sequence with A131C, C567E

Measured: binding

TonB C18G A209C (from UniProt P02929 1-239)
no binding: [1] | [2] | [3]

TonB C18G R214C (from UniProt P02929 1-239)
no binding: [1] | [2] | [3]

TonB C18G R204C (from UniProt P02929 1-239)
no binding: [1] | [2] | [3]

TonB C18G R212C (from UniProt P02929 1-239)
no binding: [1] | [2] | [3]

TonB C18G M201C (from UniProt P02929 1-239)
no binding: [1] | [2] | [3]

TonB C18G N208C (from UniProt P02929 1-239)
no binding: [1] | [2] | [3]

TonB C18G Q160C (from UniProt P02929 1-239)
no binding: [1] | [2] | [3]

TonB C18G V206C (from UniProt P02929 1-239)
no binding: [1] | [2] | [3]
